Library screening results

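Viability assay of Plasmodium falciparum sporozoites; the read-out is not stated. The concentration is filed as 10 mM, unlikely as a test dose, so the dose is not known. Higher reads as lower viability (inferred: compounds with an IC50 in retests scored well above the rest). Strong results were mostly tested again. Of about 34,000 compounds tested this way, about 280 (0.84%) reached 50% or more in at least one test.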

Each number is a percent effect as filed.
How 0% and 100% were set is not recorded. Most values in the screen are low, and negative values occur.
This is an unselected part of the compounds tested.
Two or more numbers in one place are separate tests of the same structure; such repeats can differ widely.

| # | SMILES | Percent Effect |
|---|---|---|
| 1 | `NC(=O)c1c[nH]nc1NC(=O)c1cccc(Cl)c1` | 11.58% |
| 2 | `Cc1cc(C[C@@H]2CCC[C@H]2NCc2ccccc2F)on1.O=C(O)CC(O)(CC(=O)O)C(=O)O` | -0.6695% |
| 3 | `O=C(O)C(F)(F)F.[H][C@@]12COC[C@]1([H])[C@@H](OCC(=O)N(C)C)CN2Cc1ccc2c(c1)OCO2` | -0.1733% |
| 4 | `CCn1nccc1CN(C)C(=O)Cn1nc(C)cc1C` | 7.705% |
| 5 | `CN(C)c1ncnc2c1CCN(CC1CCOCC1)CC2.O=C(O)C(F)(F)F` | 6.163% |
| 6 | `CCc1ncnc2c1CCN(CC(=O)N(C)C)CC2.O=C(O)C(F)(F)F` | 0.5254% |
| 7 | `CCNc1cc2c(nn1)CCN(C(=O)CCc1c(C)noc1Cl)C2` | 7.217% |
| 8 | `COc1cccc(CN2CCN(Cc3ccc4nonc4c3)CC2=O)c1` | -7.982% |
| 9 | `Cc1cc(CN(C)C(=O)c2cccc(N3CCCS3(=O)=O)c2)no1` | 9.379% |
| 10 | `Cc1cnc(C(=O)N2CCCCC2c2[nH]ncc2S(C)(=O)=O)cn1` (stereo unspecified) | -14.84% |
| 11 | `CCCn1cc(NC(=O)c2cccnc2O)ccc1=O` | -1.695% |
| 12 | `Cn1ccnc1CN1CCC2(CC1)COCCN(c1ncccn1)C2` | -1.798% |
| 13 | `CCCn1nc(C)c(C(=O)N(C)[C@@H]2CC[C@@H](OC)[C@@H]2O)c1C` | -3.779% |
| 14 | `CCN1CCCCC1C(=O)N1CCN(C(=O)OC)CC1` (stereo unspecified) | -10.53% |
| 15 | `COCc1nc(C(=O)N2CCCC(n3cccn3)C2)cs1` (stereo unspecified) | 3.2% |
| 16 | `c1cc(CN2CCC(c3ccnc4nccn34)C2)ccn1` (stereo unspecified) | 1.619% |
| 17 | `Cc1cnn(C2CN(CC(=O)NCCc3ccccc3)C2)c1` | -2.852% |
| 18 | `CC(C)(C)n1cc(C(=O)N2CCN(Cc3ccccc3F)CC2)cn1` | 7.42% |
| 19 | `CC(C(N)=O)S(=O)(=O)Cc1cc(Cl)c2c(c1)OCO2` (stereo unspecified) | 3.993% |
| 20 | `O=C(Nc1cc(C(F)(F)F)c[nH]c1=O)C1CCCO1` (stereo unspecified) | -1.74% |
| 21 | `CC(C)CN1CCC2(C=C(C(=O)N3CCCC3)c3ccccc32)CC1.O=C(O)C(F)(F)F` | 10.06% |
| 22 | `CCOCC1CN(C(=O)Cc2ccsc2)Cc2ccnn2C1.O=C(O)C(F)(F)F` (stereo unspecified) | 11.28% |
| 23 | `CN1CCC(N2CCC(C(=O)N(C)C)CC2)CC1.O=C(O)C(F)(F)F.O=C(O)C(F)(F)F` | -1.627% |
| 24 | `O=C(Nc1ccc(Cl)cc1C(=O)NCCN1CCOCC1)c1ccco1` | -4.059% |
| 25 | `[H][C@@]12CC(C)=CC[C@]1([H])CN(C(=O)c1ccc(-c3nc[nH]n3)cc1)C2` | -7.538% |
| 26 | `[H][C@@]12CCCO[C@]1([H])[C@H](N(CC)CC)CN2S(=O)(=O)c1cn(C)cn1` | -6.039% |
| 27 | `O=C(O)C(F)(F)F.[H][C@@]12CCN(Cc3ccoc3)C[C@@]1([H])O[C@H](C(=O)NC(C)C)C2` | 10.94% |
| 28 | `Cc1cc(O)cc(C2CCCN2C(=O)c2ccncc2)n1` (stereo unspecified) | -8.331% |
| 29 | `CCc1nnc(C2Cc3ccccc3CN2Cc2nc(C)no2)o1` (stereo unspecified) | 8.537% |
| 30 | `Cc1cc(N2CCC(O)(CN(C)C(=O)CCN)C2)c2cnccc2n1` (stereo unspecified) | -11.29% |
| 31 | `CCn1ccnc1CN1CCN(CC(O)c2cccc(F)c2)CC1` (stereo unspecified) | 11.39% |
| 32 | `COc1ccc(-n2ccc(C(=O)NCCN3CCCC(C)C3)n2)cc1` (stereo unspecified) | -45.41% |
| 33 | `CCN1CCCC1CN(CCN(C)C)S(=O)(=O)c1cccc(C#N)c1` (stereo unspecified) | -14.05% |
| 34 | `CCCc1c(C(=O)NC2CCCC2)nnn1-c1ccc(OC)cc1` | -6.125% |
| 35 | `O=C(O)C(F)(F)F.O=C(O)C(F)(F)F.[H][C@@]12CN(Cc3cccc(F)c3)CCC[C@]1(C(=O)O)CN(CCOC)C2` | 7.263% |
| 36 | `COc1ccc(CN2CCn3c(CNS(C)(=O)=O)nnc3C2)cc1` | -10.74% |
| 37 | `O=C(CN1CCOC(Cn2cccn2)C1)Nc1nncs1` (stereo unspecified) | -8.786% |
| 38 | `O=C(O)C(F)(F)F.[H][C@@]12CCCO[C@]1([H])[C@H](NS(C)(=O)=O)CN(Cc1ccc(OC)cc1)C2` | -7.684% |
| 39 | `COc1ccc(CNC(=O)CNc2ccccc2OC)cc1` | -31.82% & -37.79% |
| 40 | `Cc1nc(CNc2nc(-c3ccco3)nc3c2CCNCC3)n[nH]1` | -3.917% |
| 41 | `COc1ccc(Cl)cc1NCC(=O)NCCNc1cnccn1` | 0.16% |
| 42 | `Cc1ccc(S(=O)(=O)N2CCc3ccc(F)cc32)cc1C(=O)O` | 1.709% |
| 43 | `CCc1nnsc1C(=O)N1CCOC(c2nc(C)n[nH]2)C1` (stereo unspecified) | -6.205% |
| 44 | `CCc1c(C)nc2cc(C3CCN(CCc4ccccc4)C3)nn2c1O` (stereo unspecified) | 4.449% |
| 45 | `COCCN(C)CCN1CC2(CCN(C3CCSC3)CC2)OC1=O` (stereo unspecified) | -10.61% |
| 46 | `Cn1cnnc1C1CCCN(C(=O)c2cc(Cl)c(Cl)n2C)C1` (stereo unspecified) | 8.265% |
| 47 | `Cc1cc(NC(=O)CN2CCOC(Cn3nc(C)cc3C)C2)n(C)n1` (stereo unspecified) | -1.561% |
| 48 | `CNC(=O)NCC(=O)N(C)C(c1ccc(Cl)cc1)c1cccnc1` (stereo unspecified) | -1.007% |
| 49 | `Cc1ccc(CN2CCOC3(COCCN(C(C)C)C3)C2)o1.O=C(O)C(F)(F)F.O=C(O)C(F)(F)F` (stereo unspecified) | -6.51% |
| 50 | `Cc1nc[nH]c1CN1CCc2nc3scc(C)c3c(=O)n2CC1.Cl` | -2.653% |
| 51 | `Cc1noc(C)c1S(=O)(=O)N(C)Cc1nn(C)c(Cl)c1Cl` | 1.523% |
| 52 | `COCCN1CCCN(C(=O)NC(C)Cn2ccnc2)CC1` (stereo unspecified) | -7.822% |
| 53 | `Cc1ccc(-c2nc(C(=O)N(C)C3CCN(C)CC3)cs2)c(C)c1` | -7.775% |
| 54 | `COc1cc(CCC(=O)N2CCC(c3cc4ncccc4[nH]3)CC2)on1` | 9.626% |
| 55 | `O=C(O)C1(Oc2cccc(F)c2)CCN(c2ccncc2)CC1` | -12.02% |
| 56 | `Cc1cnn(CC2CCCN2CCCc2nc3ccccc3o2)c1` (stereo unspecified) | 7.435% |
| 57 | `Cc1ccc(-c2nnc(CN3CC[C@H](CO)[C@@H](O)C3)o2)n1C` | -5.586% |
| 58 | `COCCN1CCCN(C(=O)NC(C)Cn2cccn2)CC1` (stereo unspecified) | 4.089% |
| 59 | `Cc1ccsc1CN1CCc2c(nc(N3CCCCC3C)[nH]c2=O)C1` (stereo unspecified) | 5.188% |
| 60 | `O=C(C1CCOC1)N1CCC2(CC1)COCCN(Cc1ccncc1)C2.O=C(O)C(F)(F)F.O=C(O)C(F)(F)F` (stereo unspecified) | -5.642% |
| 61 | `Cc1cc(CN2CCN(C(=O)NC(C)Cn3cccn3)CC2)no1` (stereo unspecified) | 4.734% |
| 62 | `O=C(O)C(F)(F)F.O=C(c1ccc(F)cc1)N1CCC2(CCCN2CC2CC2)CC1` | 5.217% |
| 63 | `CN(C)[C@@H]1CCN(C(=O)c2ccsc2)[C@H]1Cc1cnn(C)c1` | -20.18% |
| 64 | `CC(C)c1nc2c(n1C)CCN(Cc1nc(-c3cccnc3)no1)C2` | -11.12% & 29.23% & -7.795% |
| 65 | `CCc1nnc2n1CC(CNCc1ccncc1)CC2` (stereo unspecified) | 0.4479% |
| 66 | `CCS(=O)(=O)N1CCn2cc(CN(C)Cc3ccco3)nc2C1` | 1.128% |
| 67 | `CC(C)c1cc(C(=O)N2CCN(c3ncc4c(n3)CCOC4)CC2)on1` | 9.563% |
| 68 | `CC(C)N1c2sc(-c3ccsc3)nc2CC1C(=O)NC1CCCC1` (stereo unspecified) | 80.44% & 80.12% |

Once more, the final 5:

| SMILES | Percent Effect |
|---|---|
| `CC(C)c1nc2c(n1C)CCN(Cc1nc(-c3cccnc3)no1)C2` | -11.12% & 29.23% & -7.795% |
| `CCc1nnc2n1CC(CNCc1ccncc1)CC2` (stereo unspecified) | 0.4479% |
| `CCS(=O)(=O)N1CCn2cc(CN(C)Cc3ccco3)nc2C1` | 1.128% |
| `CC(C)c1cc(C(=O)N2CCN(c3ncc4c(n3)CCOC4)CC2)on1` | 9.563% |
| `CC(C)N1c2sc(-c3ccsc3)nc2CC1C(=O)NC1CCCC1` (stereo unspecified) | 80.44% & 80.12% |

From ChEMBL document CHEMBL3988442, “University of Dundee, Small-Polar-MMV Screening Library” (2021).